The effect of the compound repeats well; differences between the knockouts mostly do not.
System: SKBR3
Experiment: relative cell number vs DMSO control (72 h) (% of DMSO); higher = less growth inhibition (more cells)
Procedure: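 QMAP-Seq: a pool of 5 breast cancer cell lines (ZR-75-1, SKBR3, HCC-38, MDA-MB-231, BT-20), each carrying 12 doxycycline-inducible Cas9 sgRNA perturbations (11 knockouts plus non-targeting sgNT), was treated with compounds for 72 h at four 10-fold doses (10 nM-10 uM or 1 nM-1 uM range). Barcodes were amplified and sequenced, and cell number was interpolated from 293T spike-in standard curves. The result is expressed as % of the median of DMSO wells. Two biological replicates.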

c1ccc2c(Oc3nc(Nc4ccc(N5CCOCC5)cc4)c4ncn(C5CCCCC5)c4n3)cccc2c1 [Purmorphamine]
Details | relative cell number
sgRNA knockout: sgATF3, 10 nM | 110
sgRNA knockout: sgATF3, 100 nM | 97.4
sgRNA knockout: sgATF3, 1000 nM | 102
sgRNA knockout: sgATF3, 10000 nM | 80.9
sgRNA knockout: sgATF4, 10 nM | 90.6
sgRNA knockout: sgATF4, 100 nM | 114
sgRNA knockout: sgATF4, 1000 nM | 89
sgRNA knockout: sgATF4, 10000 nM | 47.5
sgRNA knockout: sgATF6, 10 nM | 113
sgRNA knockout: sgATF6, 100 nM | 97.2
sgRNA knockout: sgATF6, 1000 nM | 92.6
sgRNA knockout: sgATF6, 10000 nM | 59.6
sgRNA knockout: sgATG7, 10 nM | 92.4
sgRNA knockout: sgATG7, 100 nM | 91.7
sgRNA knockout: sgATG7, 1000 nM | 107
sgRNA knockout: sgATG7, 10000 nM | 84.8
sgRNA knockout: sgERN1, 10 nM | 85.7
sgRNA knockout: sgERN1, 100 nM | 73.4
sgRNA knockout: sgERN1, 1000 nM | 87.9
sgRNA knockout: sgERN1, 10000 nM | 53.3
sgRNA knockout: sgHSF1, 10 nM | 77.9
sgRNA knockout: sgHSF1, 100 nM | 113
sgRNA knockout: sgHSF1, 1000 nM | 86.9
sgRNA knockout: sgHSF1, 10000 nM | 67.4
sgRNA knockout: sgHSF2, 10 nM | 88
sgRNA knockout: sgHSF2, 100 nM | 98.8
sgRNA knockout: sgHSF2, 1000 nM | 75.5
sgRNA knockout: sgHSF2, 10000 nM | 57.6
sgRNA knockout: sgKEAP1, 10 nM | 85.1
sgRNA knockout: sgKEAP1, 100 nM | 75.4
sgRNA knockout: sgKEAP1, 1000 nM | 84.8
sgRNA knockout: sgKEAP1, 10000 nM | 68
sgRNA knockout: sgNFE2L2, 10 nM | 81.2
sgRNA knockout: sgNFE2L2, 100 nM | 93.3
sgRNA knockout: sgNFE2L2, 1000 nM | 87.9
sgRNA knockout: sgNFE2L2, 10000 nM | 70.3
sgRNA knockout: sgSLC35F2, 10 nM | 82.5
sgRNA knockout: sgSLC35F2, 100 nM | 84.1
sgRNA knockout: sgSLC35F2, 1000 nM | 91.5
sgRNA knockout: sgSLC35F2, 10000 nM | 71.9
sgRNA knockout: sgXBP1, 10 nM | 87.5
sgRNA knockout: sgXBP1, 100 nM | 102
sgRNA knockout: sgXBP1, 1000 nM | 108
sgRNA knockout: sgXBP1, 10000 nM | 61

CC(C)(C)c1ccc(S(=O)(=O)NCc2ccc(C(=O)Nc3cccnc3)cc2)cc1 [STF31]
Details | relative cell number
sgRNA knockout: sgATF3, 10 nM | 119
sgRNA knockout: sgATF3, 100 nM | 99
sgRNA knockout: sgATF3, 1000 nM | 79.8
sgRNA knockout: sgATF3, 10000 nM | 38.2
sgRNA knockout: sgATF4, 10 nM | 92.5
sgRNA knockout: sgATF4, 100 nM | 84.1
sgRNA knockout: sgATF4, 1000 nM | 53.1
sgRNA knockout: sgATF4, 10000 nM | 42.03
sgRNA knockout: sgATF6, 10 nM | 95.5
sgRNA knockout: sgATF6, 100 nM | 77.1
sgRNA knockout: sgATF6, 1000 nM | 62.2
sgRNA knockout: sgATF6, 10000 nM | 43.4
sgRNA knockout: sgATG7, 10 nM | 122
sgRNA knockout: sgATG7, 100 nM | 101
sgRNA knockout: sgATG7, 1000 nM | 74.4
sgRNA knockout: sgATG7, 10000 nM | 33.6
sgRNA knockout: sgERN1, 10 nM | 136
sgRNA knockout: sgERN1, 100 nM | 90.3
sgRNA knockout: sgERN1, 1000 nM | 68.13
sgRNA knockout: sgERN1, 10000 nM | 37.1
sgRNA knockout: sgHSF1, 10 nM | 83.7
sgRNA knockout: sgHSF1, 100 nM | 90.4
sgRNA knockout: sgHSF1, 1000 nM | 61.9
sgRNA knockout: sgHSF1, 10000 nM | 43.2
sgRNA knockout: sgHSF2, 10 nM | 112
sgRNA knockout: sgHSF2, 100 nM | 91
sgRNA knockout: sgHSF2, 1000 nM | 63.6
sgRNA knockout: sgHSF2, 10000 nM | 40.8
sgRNA knockout: sgKEAP1, 10 nM | 95.4
sgRNA knockout: sgKEAP1, 100 nM | 80.8
sgRNA knockout: sgKEAP1, 1000 nM | 65
sgRNA knockout: sgKEAP1, 10000 nM | 34.7
sgRNA knockout: sgNFE2L2, 10 nM | 117
sgRNA knockout: sgNFE2L2, 100 nM | 91.3
sgRNA knockout: sgNFE2L2, 1000 nM | 65.3
sgRNA knockout: sgNFE2L2, 10000 nM | 38.96
sgRNA knockout: sgSLC35F2, 10 nM | 98.7
sgRNA knockout: sgSLC35F2, 100 nM | 87.7
sgRNA knockout: sgSLC35F2, 1000 nM | 65.6
sgRNA knockout: sgSLC35F2, 10000 nM | 46
sgRNA knockout: sgXBP1, 10 nM | 117
sgRNA knockout: sgXBP1, 100 nM | 91.5
sgRNA knockout: sgXBP1, 1000 nM | 61.57
sgRNA knockout: sgXBP1, 10000 nM | 52.8

CN1CCN(CCOc2cc(OC3CCOCC3)c3c(Nc4c(Cl)ccc5c4OCO5)ncnc3c2)CC1 [Saracatinib]
Details | relative cell number
sgRNA knockout: sgATF3, 10 nM | 91.3
sgRNA knockout: sgATF3, 100 nM | 77.2
sgRNA knockout: sgATF3, 1000 nM | 80.1
sgRNA knockout: sgATF3, 10000 nM | 41.5
sgRNA knockout: sgATF4, 10 nM | 84.9
sgRNA knockout: sgATF4, 100 nM | 96.1
sgRNA knockout: sgATF4, 1000 nM | 84.5
sgRNA knockout: sgATF4, 10000 nM | 39.1
sgRNA knockout: sgATF6, 10 nM | 84.8
sgRNA knockout: sgATF6, 100 nM | 81.7
sgRNA knockout: sgATF6, 1000 nM | 86.5
sgRNA knockout: sgATF6, 10000 nM | 40.5
sgRNA knockout: sgATG7, 10 nM | 88.6
sgRNA knockout: sgATG7, 100 nM | 106
sgRNA knockout: sgATG7, 1000 nM | 85.8
sgRNA knockout: sgATG7, 10000 nM | 41.9
sgRNA knockout: sgERN1, 10 nM | 84.5
sgRNA knockout: sgERN1, 100 nM | 91.5
sgRNA knockout: sgERN1, 1000 nM | 86.3
sgRNA knockout: sgERN1, 10000 nM | 52.3
sgRNA knockout: sgHSF1, 10 nM | 75.8
sgRNA knockout: sgHSF1, 100 nM | 84.9
sgRNA knockout: sgHSF1, 1000 nM | 73.8
sgRNA knockout: sgHSF1, 10000 nM | 30.1
sgRNA knockout: sgHSF2, 10 nM | 83
sgRNA knockout: sgHSF2, 100 nM | 94.4
sgRNA knockout: sgHSF2, 1000 nM | 77.4
sgRNA knockout: sgHSF2, 10000 nM | 44.3
sgRNA knockout: sgKEAP1, 10 nM | 89.2
sgRNA knockout: sgKEAP1, 100 nM | 79.3
sgRNA knockout: sgKEAP1, 1000 nM | 96.4
sgRNA knockout: sgKEAP1, 10000 nM | 38.9
sgRNA knockout: sgNFE2L2, 10 nM | 74.2
sgRNA knockout: sgNFE2L2, 100 nM | 103
sgRNA knockout: sgNFE2L2, 1000 nM | 73.8
sgRNA knockout: sgNFE2L2, 10000 nM | 46.2
sgRNA knockout: sgSLC35F2, 10 nM | 81.8
sgRNA knockout: sgSLC35F2, 100 nM | 76.3
sgRNA knockout: sgSLC35F2, 1000 nM | 81.3
sgRNA knockout: sgSLC35F2, 10000 nM | 40.6
sgRNA knockout: sgXBP1, 10 nM | 93.4
sgRNA knockout: sgXBP1, 100 nM | 84.2
sgRNA knockout: sgXBP1, 1000 nM | 79
sgRNA knockout: sgXBP1, 10000 nM | 44.8
